Consider one substance from PMC6189496, “Epstein-Barr Virus Nuclear Antigen 3C Inhibits Expression of COBLL1 and the ADAM28-ADAMDEC1 Locus via Interaction with the Histone Lysine Demethylase KDM2B” (Journal of Virology, 2018).

The chains behind the UniProt entries cited, without tags or fusion partners.
UniProt Q15022: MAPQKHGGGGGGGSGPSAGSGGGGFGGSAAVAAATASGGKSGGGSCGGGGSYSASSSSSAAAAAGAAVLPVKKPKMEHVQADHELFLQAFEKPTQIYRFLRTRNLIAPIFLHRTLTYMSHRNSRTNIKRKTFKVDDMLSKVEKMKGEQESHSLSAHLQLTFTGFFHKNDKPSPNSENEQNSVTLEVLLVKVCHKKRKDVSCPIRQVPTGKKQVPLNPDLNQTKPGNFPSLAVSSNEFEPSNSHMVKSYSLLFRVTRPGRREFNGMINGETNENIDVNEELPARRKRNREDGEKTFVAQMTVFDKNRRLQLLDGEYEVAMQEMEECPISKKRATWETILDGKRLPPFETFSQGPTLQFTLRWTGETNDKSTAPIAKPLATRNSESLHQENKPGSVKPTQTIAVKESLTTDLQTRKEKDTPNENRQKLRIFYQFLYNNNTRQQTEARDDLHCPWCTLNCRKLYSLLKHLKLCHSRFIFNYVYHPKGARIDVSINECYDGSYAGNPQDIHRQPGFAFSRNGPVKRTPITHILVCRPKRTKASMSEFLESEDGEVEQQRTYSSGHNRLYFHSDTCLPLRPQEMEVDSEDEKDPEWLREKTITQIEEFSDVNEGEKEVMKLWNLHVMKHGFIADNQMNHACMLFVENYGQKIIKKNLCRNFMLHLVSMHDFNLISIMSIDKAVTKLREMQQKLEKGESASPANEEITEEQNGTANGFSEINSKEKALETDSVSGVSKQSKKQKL
UniProt P35226: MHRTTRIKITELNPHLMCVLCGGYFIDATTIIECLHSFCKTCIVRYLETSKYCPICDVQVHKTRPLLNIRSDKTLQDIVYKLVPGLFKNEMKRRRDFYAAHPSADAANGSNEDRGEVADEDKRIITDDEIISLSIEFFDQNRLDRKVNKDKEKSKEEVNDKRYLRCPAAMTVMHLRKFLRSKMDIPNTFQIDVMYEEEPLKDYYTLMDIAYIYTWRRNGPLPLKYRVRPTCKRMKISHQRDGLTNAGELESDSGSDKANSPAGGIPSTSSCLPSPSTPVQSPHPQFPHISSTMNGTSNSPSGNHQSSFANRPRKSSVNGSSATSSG
UniProt Q06330: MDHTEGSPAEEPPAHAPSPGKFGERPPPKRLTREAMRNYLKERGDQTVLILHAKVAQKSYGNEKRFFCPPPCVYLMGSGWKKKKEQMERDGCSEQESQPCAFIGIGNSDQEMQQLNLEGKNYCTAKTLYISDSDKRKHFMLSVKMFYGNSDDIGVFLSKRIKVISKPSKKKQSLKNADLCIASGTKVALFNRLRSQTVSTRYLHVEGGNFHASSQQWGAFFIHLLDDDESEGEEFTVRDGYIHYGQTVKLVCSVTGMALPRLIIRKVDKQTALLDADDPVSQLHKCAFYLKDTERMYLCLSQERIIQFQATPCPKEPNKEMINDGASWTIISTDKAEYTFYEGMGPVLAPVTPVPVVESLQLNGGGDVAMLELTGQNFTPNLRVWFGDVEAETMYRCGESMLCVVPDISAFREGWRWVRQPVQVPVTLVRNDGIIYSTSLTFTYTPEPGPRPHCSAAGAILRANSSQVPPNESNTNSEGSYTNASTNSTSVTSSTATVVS
UniProt P03204: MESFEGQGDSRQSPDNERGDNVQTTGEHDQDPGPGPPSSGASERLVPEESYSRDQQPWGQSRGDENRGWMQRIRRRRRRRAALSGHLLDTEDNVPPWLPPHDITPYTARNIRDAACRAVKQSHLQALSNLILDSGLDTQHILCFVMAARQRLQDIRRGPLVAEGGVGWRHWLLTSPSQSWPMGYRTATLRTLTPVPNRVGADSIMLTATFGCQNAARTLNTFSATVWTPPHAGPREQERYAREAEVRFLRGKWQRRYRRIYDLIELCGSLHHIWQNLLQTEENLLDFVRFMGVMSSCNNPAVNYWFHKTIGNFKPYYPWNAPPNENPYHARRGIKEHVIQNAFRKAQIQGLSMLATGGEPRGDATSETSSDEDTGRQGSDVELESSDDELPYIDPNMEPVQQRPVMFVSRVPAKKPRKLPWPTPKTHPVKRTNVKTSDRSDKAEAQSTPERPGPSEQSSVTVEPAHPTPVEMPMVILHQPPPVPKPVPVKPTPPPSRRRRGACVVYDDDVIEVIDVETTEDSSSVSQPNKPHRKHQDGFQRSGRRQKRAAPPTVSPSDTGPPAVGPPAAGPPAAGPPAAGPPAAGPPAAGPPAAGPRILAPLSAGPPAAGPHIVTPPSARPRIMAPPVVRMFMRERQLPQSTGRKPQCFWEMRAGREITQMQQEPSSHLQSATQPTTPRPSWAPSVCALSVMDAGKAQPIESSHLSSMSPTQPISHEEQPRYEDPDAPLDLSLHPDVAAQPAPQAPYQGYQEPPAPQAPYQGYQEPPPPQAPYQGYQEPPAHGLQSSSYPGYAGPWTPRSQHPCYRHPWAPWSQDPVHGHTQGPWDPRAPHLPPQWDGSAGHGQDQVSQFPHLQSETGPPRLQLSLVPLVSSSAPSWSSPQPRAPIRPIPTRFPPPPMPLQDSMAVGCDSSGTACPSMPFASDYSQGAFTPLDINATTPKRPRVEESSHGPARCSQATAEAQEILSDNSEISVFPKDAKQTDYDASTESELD

No constants are given. Whether binding was seen depends on the method and setting. In cells and extracts the contact can be indirect. Some binding calls cover weakened binding; strength is not graded here. For some of these results: Where a sequence is shown, tags or fusion partners need not be part of it.

Holding throughout (experiment): co-IP; LCL extracts (10^7 cells lysed in IP buffer, precleared); the cellular protein (RBPJ, BMI1, SUZ12 or KDM2B) immunoprecipitated from 200 ug lysate overnight at 4°C, protein G-Sepharose, four washes; Western blot for EBNA3C; isotype IgG control; mutants quantified by ImageJ as percent relative IP compared to EBNA3C WT
The target of assay [1] is SUZ12 (human (endogenous in LCLs)) (UniProt Q15022).
In assay [2] the target is BMI1 (human (endogenous in LCLs)) (UniProt P35226).
In assay [3] the target is RBPJ (human (endogenous in LCLs)) (UniProt Q06330).
Assay [4] has as its target T1, histone lysine demethylase KDM2B (human (endogenous in LCLs)) (UniProt Q8NHM5).
T1 sequence: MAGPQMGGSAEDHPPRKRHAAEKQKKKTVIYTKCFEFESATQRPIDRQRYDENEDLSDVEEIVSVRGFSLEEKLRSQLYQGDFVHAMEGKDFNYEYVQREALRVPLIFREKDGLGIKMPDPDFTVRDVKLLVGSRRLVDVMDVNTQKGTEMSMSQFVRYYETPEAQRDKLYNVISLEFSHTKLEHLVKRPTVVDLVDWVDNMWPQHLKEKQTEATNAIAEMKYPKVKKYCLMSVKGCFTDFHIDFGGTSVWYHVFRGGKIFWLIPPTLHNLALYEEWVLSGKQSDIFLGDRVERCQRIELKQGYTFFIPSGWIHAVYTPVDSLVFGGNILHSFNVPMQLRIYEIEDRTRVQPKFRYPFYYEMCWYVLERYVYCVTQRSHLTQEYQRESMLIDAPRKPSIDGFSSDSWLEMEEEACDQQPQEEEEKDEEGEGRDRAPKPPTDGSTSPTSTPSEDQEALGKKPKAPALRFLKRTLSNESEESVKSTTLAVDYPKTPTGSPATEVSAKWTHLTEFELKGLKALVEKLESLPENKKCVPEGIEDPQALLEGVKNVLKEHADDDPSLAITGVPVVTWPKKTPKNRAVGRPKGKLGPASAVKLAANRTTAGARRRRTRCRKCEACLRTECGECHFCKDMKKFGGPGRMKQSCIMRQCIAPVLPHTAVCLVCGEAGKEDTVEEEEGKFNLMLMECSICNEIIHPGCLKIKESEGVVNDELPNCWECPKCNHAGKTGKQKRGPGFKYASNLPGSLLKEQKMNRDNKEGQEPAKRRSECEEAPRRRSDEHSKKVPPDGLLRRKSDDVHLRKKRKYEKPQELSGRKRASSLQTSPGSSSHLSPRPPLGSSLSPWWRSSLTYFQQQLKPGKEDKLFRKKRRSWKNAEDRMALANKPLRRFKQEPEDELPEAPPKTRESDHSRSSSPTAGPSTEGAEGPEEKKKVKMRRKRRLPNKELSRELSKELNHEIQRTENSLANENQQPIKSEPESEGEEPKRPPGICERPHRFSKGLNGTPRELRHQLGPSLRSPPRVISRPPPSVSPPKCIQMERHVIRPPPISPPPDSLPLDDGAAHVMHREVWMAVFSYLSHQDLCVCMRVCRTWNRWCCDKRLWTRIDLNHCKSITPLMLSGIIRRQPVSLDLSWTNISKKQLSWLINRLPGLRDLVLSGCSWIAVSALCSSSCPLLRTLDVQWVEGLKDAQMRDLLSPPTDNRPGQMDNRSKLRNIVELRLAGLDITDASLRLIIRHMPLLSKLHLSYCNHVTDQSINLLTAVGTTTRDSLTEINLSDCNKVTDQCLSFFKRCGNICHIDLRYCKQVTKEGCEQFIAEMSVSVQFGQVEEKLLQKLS

Consider “Epstein-Barr virus nuclear antigen 3C (EBNA3C) wild type (from UniProt P03204 1-992)”, for which the binding result is reported as “no binding” in assay [1], “binds” in assay [2], “binds” in assay [3] and “binds” in assay [4].
